The target in the experiment is recombinant cyno transferrin receptor protein (Sino Biological 90253-C07H) (cyno). Nature of the experiment: ELISA on plate-coated recombinant cyno TfR1. On the technique in general: ELISA stands for enzyme-linked immunosorbent assay.

No constants are given. Whether binding was seen depends on the method and setting. Some entries that bind do so weakly or less than the wild type.

B1: hTfR1.IgG2 mAb (chimeric human IgG2 anti-hTfR1 antibody) (antibody, V domains shown)
VH: QVQLQQPGAELVKPGASVKLSCKASGYTFTNYWMHWVKQRPGQGLEWIGEINPINGRSNYGERFKTKATLTVDKSSSTAYMQLSSLTSEDSAVYYCARGTRAMHYWGQGTSVTVSS
VL: DIQMTQSPASLSVSVGETVTITCRTSENIYNNLAWYQQKQGKSPQLLVYAATNLADGVPSRFSGSGSGTQYSLKINSLQSEDFGNYYCQHFWGTPLTFGAGTKLELKR
Turning to B1, the binding result is listed as “binds”.

For the origin of these results see patent publication US20200325237A1.
